The supplement of paper PMC4604168 (melanoma cell lines)
Some of the results follow. Repeats are few or missing, and single values can be far off.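 The apoptosis fraction was the count of cleaved-PARP antibody-stained nuclei relative to all DNA-stained nuclei, imaged in 1,536-well plates. Screening doses were set so most cells survived, and baseline and induced cleaved-PARP levels vary greatly across cell lines.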

These compounds were tested on CBRC016 (line from a melanoma biopsy) (assay: cleaved PARP positive nuclei fraction relative to DMSO control; melanoma cells; higher = more apoptosis). Conditions: library dose: low library concentration; 72 h.

Row | Structure (SMILES) | cleaved PARP positive nuclei fraction
1 | CCCCCCCCCCCCCCCCCCOP(=O)([O-])OC1CC[N+](C)(C)CC1 [Perifosine] + C[As](C)SC[C@H](NC(=O)CC[C@H](N)C(=O)O)C(=O)NCC(=O)O [Darinaparsin] (first compound 0.4 µM, partner dose 0.4 µM) | 152%
2 | CC(=O)O[C@@]12CO[C@@H]1C[C@H](O)[C@@]1(C)C(=O)[C@H](O)C3=C(C)[C@@H](OC(=O)[C@H](O)[C@@H](NC(=O)OC(C)(C)C)c4ccccc4)C[C@@](O)([C@@H](OC(=O)c4ccccc4)[C@H]21)C3(C)C [Docetaxel] + N.N.[Cl][Pt][Cl] [cisplatin] (first compound 0.0001 µM, partner dose 1.6 µM) | 228%
3 | N.N.[Cl][Pt][Cl] [cisplatin] + C#Cc1cccc(Nc2ncnc3cc(OCCOC)c(OCCOC)cc23)c1 [erlotinib] (first compound 1.6 µM, partner dose 0.8 µM) | 380%
4 | C[As](C)SC[C@H](NC(=O)CC[C@H](N)C(=O)O)C(=O)NCC(=O)O [Darinaparsin] + Cc1nc(Nc2ncc(C(=O)Nc3c(C)cccc3Cl)s2)cc(N2CCN(CCO)CC2)n1 [dasatanib] (first compound 0.4 µM, partner dose 0.004 µM) | 66.2%
5 | Cn1sc(=O)n(Cc2ccccc2)c1=O + C[As](C)SC[C@H](NC(=O)CC[C@H](N)C(=O)O)C(=O)NCC(=O)O [Darinaparsin] (first compound 0.4 µM, partner dose 0.4 µM) | 128%
6 | C[C@]12O[C@H](C[C@]1(O)CO)n1c3ccccc3c3c4c(c5c6ccccc6n2c5c31)CNC4=O [Lestaurtinib] + C[C@]1(c2nc3c(C(N)=O)cccc3[nH]2)CCCN1 [Veliparib] (first compound 0.004 µM, partner dose 1.4 µM) | 84.6%
7 | Cn1cc(C2=C(c3cn(C4CCN(Cc5ccccn5)CC4)c4ccccc34)C(=O)NC2=O)c2ccccc21 [Enzastaurin] + CN1CCN(c2ccc3nc(-c4c(N)c5c(F)cccc5[nH]c4=O)[nH]c3c2)CC1 [Dovitinib] (first compound 0.8 µM, partner dose 0.1 µM) | 35.2%
8 | CCCCCCCCc1ccc(CCC(N)(CO)CO)cc1 [fingolimod] + N.N.[Cl][Pt][Cl] [cisplatin] (first compound 2 µM, partner dose 1.6 µM) | 186%
9 | Cn1cc(C2=C(c3cn(C4CCN(Cc5ccccn5)CC4)c4ccccc34)C(=O)NC2=O)c2ccccc21 [Enzastaurin] + CCCS(=O)(=O)Nc1ccc(F)c(C(=O)c2c[nH]c3ncc(Cl)cc23)c1F [PLX4720] (first compound 0.8 µM, partner dose 0.08 µM) | 87%
10 | CC1(C)CCC(c2ccc(Cl)cc2)=C(CN2CCN(c3ccc(C(=O)NS(=O)(=O)c4ccc(N[C@H](CCN5CCOCC5)CSc5ccccc5)c(S(=O)(=O)C(F)(F)F)c4)cc3)CC2)C1 + N.N.[Cl][Pt][Cl] [cisplatin] (first compound 0.4 µM, partner dose 1.6 µM) | 796%
11 | Cn1cc(C2=C(c3cn(C4CCN(Cc5ccccn5)CC4)c4ccccc34)C(=O)NC2=O)c2ccccc21 [Enzastaurin] + Nc1ccn([C@@H]2O[C@H](CO)[C@@H](O)C2(F)F)c(=O)n1 [gemcitabine] (first compound 0.8 µM, partner dose 0.0004 µM) | 128%
12 | N.N.[Cl][Pt][Cl] [cisplatin] + Nc1ncn([C@H]2C[C@H](O)[C@@H](CO)O2)c(=O)n1 [decitabine] (first compound 1.6 µM, partner dose 0.1 µM) | 151%
13 | Cn1sc(=O)n(Cc2ccccc2)c1=O + C[C@]12O[C@H](C[C@]1(O)CO)n1c3ccccc3c3c4c(c5c6ccccc6n2c5c31)CNC4=O [Lestaurtinib] (first compound 0.4 µM, partner dose 0.004 µM) | 86.6%
14 | Cn1cc(C2=C(c3cn(C4CCN(Cc5ccccn5)CC4)c4ccccc34)C(=O)NC2=O)c2ccccc21 [Enzastaurin] + COCC[n+]1c2c(n(Cc3cnccn3)c1C)C(=O)c1ccccc1C2=O [YM155] (first compound 0.8 µM, partner dose 0.0004 µM) | 229%
15 | C[C@]1(O)C[C@@H](c2nc(-c3ccc4ccc(-c5ccccc5)nc4c3)c3c(N)nccn32)C1 + N.N.[Cl][Pt][Cl] [cisplatin] (first compound 0.4 µM, partner dose 1.6 µM) | 80.6%
16 | C[C@]12O[C@H](C[C@]1(O)CO)n1c3ccccc3c3c4c(c5c6ccccc6n2c5c31)CNC4=O [Lestaurtinib] + CC(C)C[C@H](NC(=O)[C@H](Cc1ccccc1)NC(=O)c1cnccn1)B(O)O [Bortezomib] (first compound 0.004 µM, partner dose 0.001 µM) | 561%
17 | COc1ccc(C2=N[C@@H](c3ccc(Cl)cc3)[C@@H](c3ccc(Cl)cc3)N2C(=O)N2CCNC(=O)C2)c(OC(C)C)c1 [Nutlin-3] + C[C@]12O[C@H](C[C@]1(O)CO)n1c3ccccc3c3c4c(c5c6ccccc6n2c5c31)CNC4=O [Lestaurtinib] (first compound 0.1 µM, partner dose 0.004 µM) | 116%
18 | C=CCNC1=C2C[C@@H](C)C[C@H](OC)[C@H](O)[C@@H](C)/C=C(\C)[C@H](OC(N)=O)[C@@H](OC)/C=C\C=C(/C)C(=O)NC(=CC1=O)C2=O [Tanespimycin] + C[As](C)SC[C@H](NC(=O)CC[C@H](N)C(=O)O)C(=O)NCC(=O)O [Darinaparsin] (first compound 0.002 µM, partner dose 0.4 µM) | 67.3%
19 | COc1ccc(C2=N[C@@H](c3ccc(Cl)cc3)[C@@H](c3ccc(Cl)cc3)N2C(=O)N2CCNC(=O)C2)c(OC(C)C)c1 [Nutlin-3] + C[As](C)SC[C@H](NC(=O)CC[C@H](N)C(=O)O)C(=O)NCC(=O)O [Darinaparsin] (first compound 0.1 µM, partner dose 0.4 µM) | 151%
20 | Cn1cc(C2=C(c3cn(C4CCN(Cc5ccccn5)CC4)c4ccccc34)C(=O)NC2=O)c2ccccc21 [Enzastaurin] + CNC(=O)c1cc(Oc2ccc(NC(=O)Nc3ccc(Cl)c(C(F)(F)F)c3)cc2)ccn1 [sorafenib] (first compound 0.8 µM, partner dose 0.4 µM) | 86.2%
21 | C[C@]12O[C@H](C[C@]1(O)CO)n1c3ccccc3c3c4c(c5c6ccccc6n2c5c31)CNC4=O [Lestaurtinib] + CO[C@H]1C[C@@H]2CC[C@@H](C)[C@@](O)(O2)C(=O)C(=O)N2CCCC[C@H]2C(=O)O[C@H]([C@H](C)C[C@@H]2CC[C@@H](OCCO)[C@H](OC)C2)CC(=O)[C@H](C)/C=C(\C)[C@@H](O)[C@@H](OC)C(=O)[C@H](C)C[C@H](C)/C=C/C=C/C=C/1C [everolimus] (first compound 0.004 µM, partner dose 0.02 µM) | 59.9%
22 | N.N.[Cl][Pt][Cl] [cisplatin] + Cn1c(Nc2ccc(C(F)(F)F)cc2)nc2cc(Oc3ccnc(-c4ncc(C(F)(F)F)[nH]4)c3)ccc21 [CHIR265] (first compound 1.6 µM, partner dose 0.08 µM) | 119%
23 | C[C@]12O[C@H](C[C@]1(O)CO)n1c3ccccc3c3c4c(c5c6ccccc6n2c5c31)CNC4=O [Lestaurtinib] + C=C(c1ccc(C(=O)O)cc1)c1cc2c(cc1C)C(C)(C)CCC2(C)C [Bexarotene] (first compound 0.004 µM, partner dose 2 µM) | 151%
24 | N.N.[Cl][Pt][Cl] [cisplatin] + CO[C@H]1C[C@@H]2CC[C@@H](C)[C@@](O)(O2)C(=O)C(=O)N2CCCC[C@H]2C(=O)O[C@H]([C@H](C)C[C@@H]2CC[C@@H](OCCO)[C@H](OC)C2)CC(=O)[C@H](C)/C=C(\C)[C@@H](O)[C@@H](OC)C(=O)[C@H](C)C[C@H](C)/C=C/C=C/C=C/1C [everolimus] (first compound 1.6 µM, partner dose 0.02 µM) | 163%
25 | COc1ccc(C2=N[C@@H](c3ccc(Cl)cc3)[C@@H](c3ccc(Cl)cc3)N2C(=O)N2CCNC(=O)C2)c(OC(C)C)c1 [Nutlin-3] + N.N.[Cl][Pt][Cl] [cisplatin] (first compound 0.1 µM, partner dose 1.6 µM) | 137%
26 | Cn1sc(=O)n(Cc2ccccc2)c1=O + N.N.[Cl][Pt][Cl] [cisplatin] (first compound 0.4 µM, partner dose 1.6 µM) | 156%
27 | Cn1cc(C2=C(c3cn(C4CCN(Cc5ccccn5)CC4)c4ccccc34)C(=O)NC2=O)c2ccccc21 [Enzastaurin] + CN(c1ncccc1CNc1nc(Nc2ccc3c(c2)CC(=O)N3)ncc1C(F)(F)F)S(C)(=O)=O [PF562271] (first compound 0.8 µM, partner dose 0.08 µM) | 206%
28 | C[C@]12O[C@H](C[C@]1(O)CO)n1c3ccccc3c3c4c(c5c6ccccc6n2c5c31)CNC4=O [Lestaurtinib] + CCCS(=O)(=O)Nc1ccc(F)c(C(=O)c2c[nH]c3ncc(Cl)cc23)c1F [PLX4720] (first compound 0.004 µM, partner dose 0.08 µM) | 147%
29 | C[C@]12O[C@H](C[C@]1(O)CO)n1c3ccccc3c3c4c(c5c6ccccc6n2c5c31)CNC4=O [Lestaurtinib] + COc1ccc(Cl)c(Nc2nc3ccccc3nc2NS(=O)(=O)c2cccc(NC(=O)C(C)(C)N)c2)c1 [XL147] (first compound 0.004 µM, partner dose 0.8 µM) | 233%

Look-ups from the entries so far:
cleaved PARP positive nuclei fraction, N.N.[Cl][Pt][Cl] [cisplatin] + Cn1c(Nc2ccc(C(F)(F)F)cc2)nc2cc(Oc3ccnc(-c4ncc(C(F)(F)F)[nH]4)c3)ccc21 [CHIR265] (first compound 1.6 µM, partner dose 0.08 µM) reads 119%
cleaved PARP positive nuclei fraction, Cn1sc(=O)n(Cc2ccccc2)c1=O + C[As](C)SC[C@H](NC(=O)CC[C@H](N)C(=O)O)C(=O)NCC(=O)O [Darinaparsin] (first compound 0.4 µM, partner dose 0.4 µM) reads 128%
